According to the supplement of paper PMC10849652:
The list shows a part of the results.

Chains of the proteins cited; added tags and fusions are not shown. Lines headed by an entry give the natural chain unless they say otherwise; changes in a name come on top.
UniProt Q9Y5U8: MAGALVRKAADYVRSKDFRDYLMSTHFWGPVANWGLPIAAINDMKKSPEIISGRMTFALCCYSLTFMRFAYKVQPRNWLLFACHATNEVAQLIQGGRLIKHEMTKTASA
UniProt O95563: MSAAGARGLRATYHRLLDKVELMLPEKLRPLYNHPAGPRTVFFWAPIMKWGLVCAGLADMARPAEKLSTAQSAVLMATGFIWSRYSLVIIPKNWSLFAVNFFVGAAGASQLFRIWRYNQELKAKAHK
UniProt P39210: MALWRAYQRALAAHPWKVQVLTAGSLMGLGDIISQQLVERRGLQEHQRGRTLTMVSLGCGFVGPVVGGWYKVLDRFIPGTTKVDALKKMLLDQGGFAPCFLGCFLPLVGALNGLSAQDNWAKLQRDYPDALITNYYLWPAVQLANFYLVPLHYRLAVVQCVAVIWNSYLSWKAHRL
UniProt Q9UBU8, whole entry, looked up: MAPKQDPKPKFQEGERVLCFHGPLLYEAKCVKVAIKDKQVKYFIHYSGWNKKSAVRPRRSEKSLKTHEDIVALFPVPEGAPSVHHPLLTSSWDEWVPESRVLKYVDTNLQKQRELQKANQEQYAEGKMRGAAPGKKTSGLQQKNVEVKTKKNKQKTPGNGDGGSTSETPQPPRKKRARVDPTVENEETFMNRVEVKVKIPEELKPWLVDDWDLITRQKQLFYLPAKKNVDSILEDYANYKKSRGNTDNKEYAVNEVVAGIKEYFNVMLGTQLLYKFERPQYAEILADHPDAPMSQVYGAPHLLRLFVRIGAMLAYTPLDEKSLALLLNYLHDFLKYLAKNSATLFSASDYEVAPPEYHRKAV
UniProt Q86TA1: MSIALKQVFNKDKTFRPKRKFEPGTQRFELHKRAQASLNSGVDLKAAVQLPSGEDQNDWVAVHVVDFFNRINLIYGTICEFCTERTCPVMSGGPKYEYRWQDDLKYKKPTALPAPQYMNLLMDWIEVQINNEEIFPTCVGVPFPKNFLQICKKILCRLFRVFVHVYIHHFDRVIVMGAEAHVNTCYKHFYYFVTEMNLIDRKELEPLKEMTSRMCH
UniProt Q9H081: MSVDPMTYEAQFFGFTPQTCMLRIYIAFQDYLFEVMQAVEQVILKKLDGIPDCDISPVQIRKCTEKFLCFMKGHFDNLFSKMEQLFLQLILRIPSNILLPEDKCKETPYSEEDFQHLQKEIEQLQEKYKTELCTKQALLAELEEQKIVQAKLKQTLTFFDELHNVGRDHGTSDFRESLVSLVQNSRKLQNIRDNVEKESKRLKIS
UniProt Q9NZW5: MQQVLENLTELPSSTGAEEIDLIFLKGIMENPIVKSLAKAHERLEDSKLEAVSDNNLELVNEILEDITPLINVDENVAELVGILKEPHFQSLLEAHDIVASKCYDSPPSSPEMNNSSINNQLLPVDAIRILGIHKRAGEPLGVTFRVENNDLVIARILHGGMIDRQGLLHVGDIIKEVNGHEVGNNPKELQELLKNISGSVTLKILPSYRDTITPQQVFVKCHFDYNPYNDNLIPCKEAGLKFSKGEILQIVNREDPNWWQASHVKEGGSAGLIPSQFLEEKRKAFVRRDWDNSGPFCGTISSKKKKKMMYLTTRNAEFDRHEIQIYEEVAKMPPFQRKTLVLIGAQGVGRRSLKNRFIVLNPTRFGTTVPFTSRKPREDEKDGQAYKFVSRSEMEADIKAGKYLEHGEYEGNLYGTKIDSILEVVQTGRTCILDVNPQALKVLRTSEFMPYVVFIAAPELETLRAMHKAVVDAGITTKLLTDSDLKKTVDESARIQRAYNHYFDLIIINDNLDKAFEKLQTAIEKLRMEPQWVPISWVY
UniProt Q9BV20: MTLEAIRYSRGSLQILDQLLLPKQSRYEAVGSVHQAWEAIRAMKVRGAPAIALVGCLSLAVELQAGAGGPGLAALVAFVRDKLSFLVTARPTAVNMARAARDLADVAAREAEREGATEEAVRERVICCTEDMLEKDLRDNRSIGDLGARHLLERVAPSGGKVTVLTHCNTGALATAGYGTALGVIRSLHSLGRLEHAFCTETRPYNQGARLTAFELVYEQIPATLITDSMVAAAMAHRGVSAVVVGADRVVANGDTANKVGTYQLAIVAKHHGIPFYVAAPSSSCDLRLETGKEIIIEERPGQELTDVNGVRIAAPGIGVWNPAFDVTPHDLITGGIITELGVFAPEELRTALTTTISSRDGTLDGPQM
UniProt Q9BWT6: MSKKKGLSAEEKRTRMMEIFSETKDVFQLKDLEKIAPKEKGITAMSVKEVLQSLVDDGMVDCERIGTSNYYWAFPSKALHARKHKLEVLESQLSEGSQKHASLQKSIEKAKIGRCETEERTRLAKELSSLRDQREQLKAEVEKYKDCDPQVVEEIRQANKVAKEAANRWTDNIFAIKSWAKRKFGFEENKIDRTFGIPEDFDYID

Assays:
Experiment in all cases: log2 fold change, soluble protein after heating vs DMSO (PISA); higher = thermal stabilisation; K562 lysate, 10 uM; active = over 0.2 and 3.5 SD of the protein, either way, in both replicates (recomputed)
[1] = compound: NCC(=O)Nc1ccc(-n2nc(C(F)(F)F)cc2-c2ccc3c(ccc4ccccc43)c2)cc1
Outline: (§1)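 Following dounce homogenisation of K562 pellets in PBS pH 7.4 with 1 mM MgCl2, crude extract at 1 mg/mL protein was incubated for 30 min with 10 μM compound. Aliquots were then heated for 3 min over 48°C-58°C and pooled, NP-40 was added to 0.5% at 4°C, and soluble protein was recovered as the supernatant at 21,000xg for 90 min. Channel-sum-equalised TMTpro 16plex LC-MS/MS quantified this protein. Each value, from duplicates, is a log-two fold change in thermal stability relative to solvent controls.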

vorinostat = compound: O=C(CCCCCCC(=O)Nc1ccccc1)NO [vorinostat]
Outline: as §1

silmitasertib = compound: O=C(O)c1ccc2c(c1)nc(Nc1cccc(Cl)c1)c1ccncc12 [silmitasertib]
Outline: as §1

[2] = compound: O=C1NC(=O)C(c2cnc3ccccn23)=C1c1cn2c3c(cc(F)cc13)CN(C(=O)N1CCCCC1)CC2
Outline: as §1

entospletinib = compound: c1cn2cc(-c3ccc4cn[nH]c4c3)nc(Nc3ccc(N4CCOCC4)cc3)c2n1 [entospletinib]
Outline: as §1

Measured: log2 fold change

MPC1 (UniProt Q9Y5U8)
inactive: [1] 0.096 | vorinostat 0.051 | silmitasertib 0.094 | [2] -0.02 | entospletinib 0.051

MPC2 (UniProt O95563)
inactive: [1] 0.055 | vorinostat 0.02 | silmitasertib 0.007 | [2] 0.006 | entospletinib 0.004

MPV17 (UniProt P39210)
inactive: [1] -0.168 | vorinostat 0.001 | silmitasertib -0.044 | [2] 0.085 | entospletinib 0.112

MORF4L1 isoform 2 (UniProt Q9UBU8)
inactive: [1] 0.013 | vorinostat 0.058 | silmitasertib -0.002 | [2] 0.015 | entospletinib 0.018

MOB3B (UniProt Q86TA1)
inactive: [1] 0.086 | vorinostat -0.093 | silmitasertib -0.024 | [2] -0.036 | entospletinib -0.086

MIS12 (UniProt Q9H081)
inactive: [1] -0.022 | vorinostat -0.2 | silmitasertib 0.007 | [2] 0.019 | entospletinib -0.002

MPP6 (UniProt Q9NZW5)
inactive: [1] -0.017 | vorinostat 0.059 | silmitasertib 0.019 | [2] 0.023 | entospletinib -0.013

MRI1 (UniProt Q9BV20)
inactive: [1] 0.03 | vorinostat -0.021 | silmitasertib 0.01 | [2] 0.025 | entospletinib 0.032

MND1 (UniProt Q9BWT6)
inactive: [1] -0.009 | vorinostat -0.013 | silmitasertib 0.034 | [2] -0.023 | entospletinib -0.006

Quoted at random: 2 records from the list, in no set order.
MPC1 (UniProt Q9Y5U8)
inactive: [1] 0.096 | vorinostat 0.051 | silmitasertib 0.094 | [2] -0.02 | entospletinib 0.051

MPP6 (UniProt Q9NZW5)
inactive: [1] -0.017 | vorinostat 0.059 | silmitasertib 0.019 | [2] 0.023 | entospletinib -0.013
